Experimental data: paper PMC6684583
No constants are given. Whether binding was seen depends on the method and setting. In cells and extracts the contact can be indirect. Some entries that bind do so weakly or less than the wild type.

By UniProt entry, the sequences of proteins in these tests, tags left out.
UniProt Q9Z0R4: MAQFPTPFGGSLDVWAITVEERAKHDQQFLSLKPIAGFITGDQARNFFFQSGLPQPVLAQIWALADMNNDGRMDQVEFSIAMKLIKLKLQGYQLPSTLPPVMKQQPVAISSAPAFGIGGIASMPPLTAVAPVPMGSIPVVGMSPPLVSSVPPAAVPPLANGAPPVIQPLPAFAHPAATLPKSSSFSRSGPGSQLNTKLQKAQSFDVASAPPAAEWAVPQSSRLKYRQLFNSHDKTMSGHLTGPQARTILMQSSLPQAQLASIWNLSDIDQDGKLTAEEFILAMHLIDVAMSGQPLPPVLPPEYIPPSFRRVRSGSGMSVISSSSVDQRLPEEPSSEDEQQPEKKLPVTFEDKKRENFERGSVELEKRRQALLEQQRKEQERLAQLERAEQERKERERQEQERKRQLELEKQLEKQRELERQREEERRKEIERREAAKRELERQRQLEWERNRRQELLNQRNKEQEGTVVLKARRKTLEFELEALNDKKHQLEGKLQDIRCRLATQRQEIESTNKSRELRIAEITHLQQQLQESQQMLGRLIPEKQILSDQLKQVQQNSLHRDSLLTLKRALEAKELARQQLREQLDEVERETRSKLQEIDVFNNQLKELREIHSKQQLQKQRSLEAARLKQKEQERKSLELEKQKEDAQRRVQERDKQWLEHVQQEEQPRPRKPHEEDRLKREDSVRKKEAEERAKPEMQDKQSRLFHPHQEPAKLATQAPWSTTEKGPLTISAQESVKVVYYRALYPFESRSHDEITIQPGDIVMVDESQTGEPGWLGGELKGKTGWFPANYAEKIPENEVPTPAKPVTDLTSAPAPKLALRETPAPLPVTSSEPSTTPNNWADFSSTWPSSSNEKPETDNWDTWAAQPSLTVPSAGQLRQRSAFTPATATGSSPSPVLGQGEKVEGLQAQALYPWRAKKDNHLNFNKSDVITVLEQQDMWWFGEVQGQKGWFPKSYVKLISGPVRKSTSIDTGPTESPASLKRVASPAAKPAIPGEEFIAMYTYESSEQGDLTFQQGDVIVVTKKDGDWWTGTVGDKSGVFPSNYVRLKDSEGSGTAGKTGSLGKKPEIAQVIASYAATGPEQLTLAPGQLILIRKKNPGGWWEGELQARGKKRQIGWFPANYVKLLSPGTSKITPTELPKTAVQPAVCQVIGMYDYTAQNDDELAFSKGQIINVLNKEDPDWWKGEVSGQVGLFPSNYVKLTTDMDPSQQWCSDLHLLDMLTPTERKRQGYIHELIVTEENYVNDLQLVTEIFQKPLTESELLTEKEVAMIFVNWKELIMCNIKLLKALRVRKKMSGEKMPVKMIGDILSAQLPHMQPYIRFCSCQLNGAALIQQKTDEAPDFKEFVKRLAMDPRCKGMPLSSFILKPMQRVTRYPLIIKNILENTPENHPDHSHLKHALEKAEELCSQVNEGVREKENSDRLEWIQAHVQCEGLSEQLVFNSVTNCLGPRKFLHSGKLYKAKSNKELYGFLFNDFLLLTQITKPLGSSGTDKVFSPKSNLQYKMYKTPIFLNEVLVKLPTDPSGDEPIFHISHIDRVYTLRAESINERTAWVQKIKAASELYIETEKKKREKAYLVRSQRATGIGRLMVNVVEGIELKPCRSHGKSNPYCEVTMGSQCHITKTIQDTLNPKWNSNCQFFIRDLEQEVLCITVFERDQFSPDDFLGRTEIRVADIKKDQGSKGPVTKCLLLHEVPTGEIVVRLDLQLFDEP
UniProt P17427: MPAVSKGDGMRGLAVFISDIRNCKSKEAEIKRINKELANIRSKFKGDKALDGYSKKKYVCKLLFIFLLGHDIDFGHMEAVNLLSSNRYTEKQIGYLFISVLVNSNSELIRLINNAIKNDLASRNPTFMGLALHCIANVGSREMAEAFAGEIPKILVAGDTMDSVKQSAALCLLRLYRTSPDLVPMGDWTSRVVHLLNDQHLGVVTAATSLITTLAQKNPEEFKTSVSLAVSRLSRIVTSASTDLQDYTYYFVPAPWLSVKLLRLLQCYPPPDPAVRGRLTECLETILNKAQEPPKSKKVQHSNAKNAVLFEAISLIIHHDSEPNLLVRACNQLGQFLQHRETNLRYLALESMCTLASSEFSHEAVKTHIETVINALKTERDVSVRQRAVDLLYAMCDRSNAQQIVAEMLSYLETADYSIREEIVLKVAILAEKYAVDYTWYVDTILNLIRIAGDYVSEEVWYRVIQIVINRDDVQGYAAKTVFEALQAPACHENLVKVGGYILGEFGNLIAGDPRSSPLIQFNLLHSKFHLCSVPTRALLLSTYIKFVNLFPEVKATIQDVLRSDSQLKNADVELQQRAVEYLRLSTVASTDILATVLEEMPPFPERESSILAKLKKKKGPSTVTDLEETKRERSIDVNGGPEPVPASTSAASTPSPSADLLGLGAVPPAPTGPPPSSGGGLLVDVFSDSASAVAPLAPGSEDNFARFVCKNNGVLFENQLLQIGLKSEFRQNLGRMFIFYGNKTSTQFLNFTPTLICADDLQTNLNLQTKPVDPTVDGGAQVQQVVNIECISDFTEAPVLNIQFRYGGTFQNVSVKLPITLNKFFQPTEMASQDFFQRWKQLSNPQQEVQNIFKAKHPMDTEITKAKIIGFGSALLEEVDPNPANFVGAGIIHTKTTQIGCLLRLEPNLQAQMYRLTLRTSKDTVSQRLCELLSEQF
UniProt Q9QWY8: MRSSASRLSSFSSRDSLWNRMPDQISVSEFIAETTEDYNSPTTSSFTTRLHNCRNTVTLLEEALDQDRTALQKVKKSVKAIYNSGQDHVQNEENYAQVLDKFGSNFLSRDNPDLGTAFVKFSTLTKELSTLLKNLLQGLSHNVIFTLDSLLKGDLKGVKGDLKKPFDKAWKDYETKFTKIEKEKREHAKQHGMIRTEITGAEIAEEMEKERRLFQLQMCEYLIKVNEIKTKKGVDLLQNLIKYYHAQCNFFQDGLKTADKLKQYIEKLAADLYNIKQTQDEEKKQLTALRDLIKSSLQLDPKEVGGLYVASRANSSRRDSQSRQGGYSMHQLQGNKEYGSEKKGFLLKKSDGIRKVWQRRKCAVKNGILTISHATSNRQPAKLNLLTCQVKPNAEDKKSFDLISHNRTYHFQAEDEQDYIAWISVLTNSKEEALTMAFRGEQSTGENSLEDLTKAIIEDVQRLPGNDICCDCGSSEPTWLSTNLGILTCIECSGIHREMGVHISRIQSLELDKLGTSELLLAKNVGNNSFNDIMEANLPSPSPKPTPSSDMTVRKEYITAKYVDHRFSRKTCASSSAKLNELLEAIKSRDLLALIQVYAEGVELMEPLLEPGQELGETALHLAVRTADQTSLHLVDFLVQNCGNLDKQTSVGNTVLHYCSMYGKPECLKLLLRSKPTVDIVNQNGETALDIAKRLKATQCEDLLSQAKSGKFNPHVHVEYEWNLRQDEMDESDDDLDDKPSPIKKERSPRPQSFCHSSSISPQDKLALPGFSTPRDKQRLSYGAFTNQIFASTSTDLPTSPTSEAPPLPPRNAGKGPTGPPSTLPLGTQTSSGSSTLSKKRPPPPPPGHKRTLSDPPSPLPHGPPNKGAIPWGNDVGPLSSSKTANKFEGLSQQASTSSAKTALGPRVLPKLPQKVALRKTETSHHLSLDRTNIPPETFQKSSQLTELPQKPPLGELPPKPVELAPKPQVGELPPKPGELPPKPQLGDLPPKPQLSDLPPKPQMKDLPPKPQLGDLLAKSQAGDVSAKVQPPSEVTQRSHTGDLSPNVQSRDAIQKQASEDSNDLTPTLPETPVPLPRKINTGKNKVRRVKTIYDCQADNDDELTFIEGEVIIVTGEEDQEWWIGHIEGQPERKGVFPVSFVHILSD
UniProt P17426: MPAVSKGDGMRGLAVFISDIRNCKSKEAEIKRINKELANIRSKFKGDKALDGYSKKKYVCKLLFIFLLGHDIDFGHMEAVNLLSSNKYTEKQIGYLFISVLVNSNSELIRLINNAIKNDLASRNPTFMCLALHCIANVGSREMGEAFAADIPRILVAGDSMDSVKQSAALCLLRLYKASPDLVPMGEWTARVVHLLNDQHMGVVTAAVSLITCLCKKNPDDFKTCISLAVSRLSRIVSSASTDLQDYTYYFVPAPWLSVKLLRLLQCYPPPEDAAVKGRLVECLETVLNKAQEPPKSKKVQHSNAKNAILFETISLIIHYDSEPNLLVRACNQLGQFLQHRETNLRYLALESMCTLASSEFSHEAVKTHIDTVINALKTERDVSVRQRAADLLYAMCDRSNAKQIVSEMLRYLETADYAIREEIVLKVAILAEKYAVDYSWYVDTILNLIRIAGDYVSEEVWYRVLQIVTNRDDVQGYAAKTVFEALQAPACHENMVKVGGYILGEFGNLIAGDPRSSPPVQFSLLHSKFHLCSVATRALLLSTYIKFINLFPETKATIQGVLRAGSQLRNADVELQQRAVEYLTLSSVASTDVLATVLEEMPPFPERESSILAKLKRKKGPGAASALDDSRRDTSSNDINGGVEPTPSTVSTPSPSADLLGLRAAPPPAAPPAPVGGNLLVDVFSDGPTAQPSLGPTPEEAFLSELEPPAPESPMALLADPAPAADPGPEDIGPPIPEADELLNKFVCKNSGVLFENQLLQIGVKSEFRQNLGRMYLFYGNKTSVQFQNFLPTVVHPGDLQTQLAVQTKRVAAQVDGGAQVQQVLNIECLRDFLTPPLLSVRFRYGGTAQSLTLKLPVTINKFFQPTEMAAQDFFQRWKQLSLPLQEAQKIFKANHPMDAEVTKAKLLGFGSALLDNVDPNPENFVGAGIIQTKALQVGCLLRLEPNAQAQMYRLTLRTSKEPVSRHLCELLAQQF

T1: AIDA-1 (APP intracellular domain associated 1), encoded by Anks1b (mouse (endogenous in mouse brain)) (UniProt Q8BIZ1)
T1 sequence: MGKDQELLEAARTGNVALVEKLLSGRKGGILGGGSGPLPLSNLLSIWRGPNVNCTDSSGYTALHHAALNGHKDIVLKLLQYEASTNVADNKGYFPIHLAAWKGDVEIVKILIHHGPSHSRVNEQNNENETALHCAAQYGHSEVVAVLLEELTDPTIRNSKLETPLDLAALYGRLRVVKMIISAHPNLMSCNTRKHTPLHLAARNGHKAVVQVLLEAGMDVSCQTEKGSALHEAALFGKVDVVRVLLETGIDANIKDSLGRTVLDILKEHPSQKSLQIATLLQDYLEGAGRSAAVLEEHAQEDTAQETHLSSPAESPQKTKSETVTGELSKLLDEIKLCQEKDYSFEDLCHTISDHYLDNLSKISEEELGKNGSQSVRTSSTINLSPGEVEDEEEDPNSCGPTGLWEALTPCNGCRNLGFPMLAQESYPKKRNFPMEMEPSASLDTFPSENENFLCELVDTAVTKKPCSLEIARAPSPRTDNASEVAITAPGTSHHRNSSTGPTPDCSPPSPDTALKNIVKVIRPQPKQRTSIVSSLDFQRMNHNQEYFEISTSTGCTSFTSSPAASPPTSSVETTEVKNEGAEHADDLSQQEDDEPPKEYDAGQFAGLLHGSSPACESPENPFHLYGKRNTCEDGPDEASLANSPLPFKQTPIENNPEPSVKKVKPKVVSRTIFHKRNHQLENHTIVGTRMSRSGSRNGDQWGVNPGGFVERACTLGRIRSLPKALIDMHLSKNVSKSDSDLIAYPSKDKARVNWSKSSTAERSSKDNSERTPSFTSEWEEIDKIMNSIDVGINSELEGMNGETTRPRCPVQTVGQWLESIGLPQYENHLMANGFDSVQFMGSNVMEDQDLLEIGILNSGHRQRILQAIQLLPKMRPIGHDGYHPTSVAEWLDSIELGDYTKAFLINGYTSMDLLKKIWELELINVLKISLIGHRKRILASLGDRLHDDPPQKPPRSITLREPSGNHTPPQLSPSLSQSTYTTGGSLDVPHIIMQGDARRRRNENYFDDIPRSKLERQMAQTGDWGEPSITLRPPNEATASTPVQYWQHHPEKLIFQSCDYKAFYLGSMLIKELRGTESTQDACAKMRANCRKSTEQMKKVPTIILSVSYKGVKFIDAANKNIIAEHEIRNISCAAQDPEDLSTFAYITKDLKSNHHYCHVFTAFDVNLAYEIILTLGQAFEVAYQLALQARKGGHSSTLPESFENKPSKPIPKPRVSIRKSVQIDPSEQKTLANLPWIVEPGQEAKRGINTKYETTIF


Each molecule was assayed against T1, AIDA-1 (APP intracellular domain associated 1), encoded by Anks1b (mouse (endogenous in mouse brain)) (assay: co-IP; independent co-IP from mouse brain lysates, western blot; which protein was precipitated is not told).

Molecule	binding
Itsn1 (from UniProt Q9Z0R4 1-1714)	binds
Ap2a2 (from UniProt P17427 1-938)	binds
Git1 (protein, UniProt Q68FF6 1-770) MSRKGPRAEVCADCSAPDPGWASISRGVLVCDECCSVHRSLGRHISIVKHLRHSAWPPTLLQMVHTLASNGANSIWEHSLLDPAQVQSGRRKANPQDKVHPIKSEFIRAKYQMLAFVHKLPCRDDDGVTAKDLSKQLHSSVRTGNLETCLRLLSLGAQANFFHPEKGTTPLHVAAKAGQTLQAELLVVYGADPGSPDVNGRTPIDYARQAGHHELAERLVECQYELTDRLAFYLCGRKPDHKNGHYIIPQMADRSRQKCMSQSLDLSELAKAAKKKLQALSNRLFEELAMDVYDEVDRRENDAVWLATQNHSTLVTERSAVPFLPVNPEYSATRNQGRQKLARFNAREFATLIIDILSEAKRRQQGKSLSSPTDNLELSARSQSELDDQHDYDSVASDEDTDQEPLPSAGATRNNRARSMDSSDLSDGAVTLQEYLELKKALATSEAKVQQLMKVNSSLSDELRRLQREIHKLQAENLQLRQPPGPVPPPSLPSERAEHTLMGPGGSTHRRDRQAFSMYEPGSALKPFGGTPGDELATRLQPFHSTELEDDAIYSVHVPAGLYRIRKGVSASSVPFTPSSPLLSCSQEGSRHASKLSRHGSGADSDYENTQSGDPLLGLEGKRFLELSKEDELHPELESLDGDLDPGLPSTEDVILKTEQVTKNIQELLRAAQEFKHDSFVPCSEKIHLAVTEMASLFPKRPALEPVRSSLRLLNASAYRLQSECRKTVPPEPGAPVDFQLLTQQVIQCAYDIAKAAKQLVTITTREKKQ	binds

The remaining lines, values ahead:

binding	Molecule
binds	Asap1 (from UniProt Q9QWY8 1-1147)
binds	Ap2a1 (from UniProt P17426 1-977)
binds	Srgap2 (from UniProt Q91Z67 1-1071)
